# In PubChem BioAssay AID662 (National Center for Advancing Translational Sciences (NCATS), 2007):
# This is one part of the list. The main result of the screen is listed elsewhere. These columns were measured beside it and carry no call. Most of these compounds were active or inconclusive in the main read-out, so they are no random draw. Potencies come from curve fits of mixed quality, noted in brackets.
# Test: Cell signaling CRE-BLA (Fsk stim)
# Settings: CHO CRE-bla reporter (cAMP response element driving beta-lactamase), forskolin EC10, beta-lactamase ratio; measured here: 460 nm blue channel
# How it was run: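 AC50 values, positive or negative, reflect shifts in EC10 NKH 477-induced CRE-bla reporter activity in CHO cells. Incubation lasted 3 h at 37 °C before CCF4 substrate (2 h, room temperature) and ratiometric 460/530 nm reading.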
row,Structure (SMILES),AC50
1,CCOC(=O)c1cccc(NC(=O)C2CCCN2S(=O)(=O)c2cccc3cccnc23)c1 (stereo not drawn),"12.6 µM [rising, partial curve]"
2,Nc1nc2c(s1)CCc1c-2cnn1-c1ccccc1,"25.1 µM [falling, single point]"
3,COc1cc2nc(NC(=O)c3ccccc3)[nH]c(=O)c2cc1OC,"25.1 µM [rising, single point]"
4,c1ccc(Oc2nc(Oc3ccccc3)nc(N3CCOCC3)n2)cc1,"7.94 µM [rising, partial curve]"
5,CCc1c(C(C)O)oc2ccc3c(C)cc(=O)oc3c12 (stereo not drawn),"1.58 µM [rising, partial curve]"
6,Clc1ccc(OCc2nnc3n2N=C(c2ccc4c(c2)OCCO4)CS3)c(Cl)c1,"1 µM [rising, full curve]"
7,CC1Oc2ccccc2N(Cc2ccccc2Cl)C1=O (stereo not drawn),"15.8 µM [rising, partial curve]"
8,CCC(=O)Nc1c(C)cc(C)cc1Cl,"0.01 µM [falling, full curve, poor fit]"
9,COc1ccc(-c2cc(C(F)(F)F)nc(N3CCN(C)CC3)n2)cc1,"10 µM [rising, single point]"
10,CC12CC(NC(=O)N1c1cccc(C(=O)Nc3ncn[nH]3)c1)c1ccccc1O2 (stereo not drawn),"7.94 µM [falling, partial curve]"
11,O=C(CN(Cc1ccco1)C(=O)CNS(=O)(=O)c1ccc(Cl)cc1)NC1CCCCC1,"0.1 µM [falling, full curve]"
12,O=C(NCc1ccco1)C1CCCN(S(=O)(=O)c2cccc3nsnc23)C1 (stereo not drawn),"31.6 µM [falling, partial curve, poor fit]"
13,Clc1ccccc1-c1nnc2sc(-c3ccc4c(c3)OCO4)nn12,"12.6 µM [rising, partial curve]"
14,CCc1nc(NCCCn2ccnc2)c2oc3ccccc3c2n1,"10 µM [rising, partial curve]"
15,O=C(CSc1nnnn1-c1ccccc1)N1CCc2ccccc2C1,"7.94 µM [falling, partial curve]"
16,COc1cccc(-n2c(Cc3cc(=O)[nH]c(=O)[nH]3)nnc2SCC(=O)N2CCC(C)CC2)c1,"0.00398 µM [falling, full curve, poor fit]"
17,O=C(COC(=O)c1cncc(Br)c1)NCc1ccco1,"6.31 µM [falling, partial curve]"
18,CC(C)C[C@@H](CC(=O)N[C@@H](CCCN)CC(=O)N[C@@H]1CCCC[C@H]1C(=O)N[C@H](CC(=O)N[C@@H](CCC(=O)O)CC(=O)O)Cc1c[nH]c2ccccc12)NC(=O)[C@@H]1CNCC[C@H]1N,"10 µM [falling, partial curve, poor fit]"
